Source: publication PMC10401002
No constants are given. Whether binding was seen depends on the method and setting. Some entries that bind do so weakly or less than the wild type.

The chains behind the UniProt entries cited, without tags or fusion partners. Where a name states a change or a piece, a line headed by the entry shows the natural chain unless it says otherwise.
UniProt P04406: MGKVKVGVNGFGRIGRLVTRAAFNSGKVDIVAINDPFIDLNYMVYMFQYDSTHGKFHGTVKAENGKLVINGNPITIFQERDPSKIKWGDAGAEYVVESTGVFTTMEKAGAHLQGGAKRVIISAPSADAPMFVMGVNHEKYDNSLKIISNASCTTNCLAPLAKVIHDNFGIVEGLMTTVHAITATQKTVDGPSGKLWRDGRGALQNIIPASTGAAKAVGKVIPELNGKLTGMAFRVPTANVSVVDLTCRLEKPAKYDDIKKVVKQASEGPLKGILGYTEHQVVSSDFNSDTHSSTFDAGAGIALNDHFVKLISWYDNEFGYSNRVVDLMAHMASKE

Target: recombinant human GAPDH A183W with C-terminal eGFP (human) (UniProt P04406)
Assay: SEC; fluorescence-detection SEC of lysate (DDM/CHS) of transfected cells, Superdex 200 Increase 10/300 GL in TBS, GFP signal

For “recombinant human GAPDH A183W with C-terminal eGFP (from UniProt P04406 1-335) (enzyme)”, the binding was “binds”.
